Results on four molecules are retold here after PMC7162874.

Amino acid sequences for entries named in this document (tags omitted).
UniProt Q99459: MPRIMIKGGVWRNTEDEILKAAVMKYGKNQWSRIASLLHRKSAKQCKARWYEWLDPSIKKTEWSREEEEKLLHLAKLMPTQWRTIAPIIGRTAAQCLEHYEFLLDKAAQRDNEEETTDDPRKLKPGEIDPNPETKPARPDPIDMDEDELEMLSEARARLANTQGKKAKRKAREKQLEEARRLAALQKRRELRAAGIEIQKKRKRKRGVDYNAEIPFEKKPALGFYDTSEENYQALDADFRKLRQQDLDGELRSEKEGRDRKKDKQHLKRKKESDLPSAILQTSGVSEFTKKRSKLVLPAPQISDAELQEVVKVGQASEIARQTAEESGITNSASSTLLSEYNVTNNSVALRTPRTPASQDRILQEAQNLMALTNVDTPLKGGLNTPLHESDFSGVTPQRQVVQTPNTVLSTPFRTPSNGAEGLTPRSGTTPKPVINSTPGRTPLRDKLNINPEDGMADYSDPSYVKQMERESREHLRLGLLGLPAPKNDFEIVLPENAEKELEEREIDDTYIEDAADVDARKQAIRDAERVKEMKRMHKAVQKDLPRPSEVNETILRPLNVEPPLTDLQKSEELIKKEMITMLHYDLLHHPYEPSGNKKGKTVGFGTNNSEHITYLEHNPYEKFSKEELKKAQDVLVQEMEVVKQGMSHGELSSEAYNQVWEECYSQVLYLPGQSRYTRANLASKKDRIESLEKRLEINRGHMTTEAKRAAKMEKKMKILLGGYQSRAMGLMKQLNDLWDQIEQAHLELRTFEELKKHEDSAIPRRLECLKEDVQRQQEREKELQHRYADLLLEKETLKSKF
UniProt O14641: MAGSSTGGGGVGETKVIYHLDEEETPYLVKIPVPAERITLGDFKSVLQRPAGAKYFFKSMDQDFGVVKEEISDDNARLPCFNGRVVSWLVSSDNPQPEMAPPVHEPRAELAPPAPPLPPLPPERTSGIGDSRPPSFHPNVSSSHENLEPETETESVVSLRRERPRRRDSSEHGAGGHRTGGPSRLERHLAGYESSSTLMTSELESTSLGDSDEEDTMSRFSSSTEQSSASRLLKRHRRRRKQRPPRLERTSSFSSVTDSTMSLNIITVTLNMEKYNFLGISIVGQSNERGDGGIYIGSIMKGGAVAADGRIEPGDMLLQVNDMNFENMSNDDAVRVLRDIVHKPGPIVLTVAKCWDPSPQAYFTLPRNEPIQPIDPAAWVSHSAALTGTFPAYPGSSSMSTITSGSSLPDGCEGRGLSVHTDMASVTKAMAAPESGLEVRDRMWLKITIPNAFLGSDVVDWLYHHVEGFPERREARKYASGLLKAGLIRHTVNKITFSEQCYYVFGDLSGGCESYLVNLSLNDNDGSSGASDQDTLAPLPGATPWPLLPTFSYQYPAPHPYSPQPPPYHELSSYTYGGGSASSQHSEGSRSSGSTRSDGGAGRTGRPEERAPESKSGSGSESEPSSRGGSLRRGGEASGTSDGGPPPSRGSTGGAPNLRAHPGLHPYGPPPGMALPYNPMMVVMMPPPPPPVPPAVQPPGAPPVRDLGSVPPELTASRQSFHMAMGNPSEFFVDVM

The target in the test is T1, WW domain-containing oxidoreductase (WWOX), wild type, stably overexpressed in MDA-MB435S cells (UniProt Q9NZC7).
T1 sequence: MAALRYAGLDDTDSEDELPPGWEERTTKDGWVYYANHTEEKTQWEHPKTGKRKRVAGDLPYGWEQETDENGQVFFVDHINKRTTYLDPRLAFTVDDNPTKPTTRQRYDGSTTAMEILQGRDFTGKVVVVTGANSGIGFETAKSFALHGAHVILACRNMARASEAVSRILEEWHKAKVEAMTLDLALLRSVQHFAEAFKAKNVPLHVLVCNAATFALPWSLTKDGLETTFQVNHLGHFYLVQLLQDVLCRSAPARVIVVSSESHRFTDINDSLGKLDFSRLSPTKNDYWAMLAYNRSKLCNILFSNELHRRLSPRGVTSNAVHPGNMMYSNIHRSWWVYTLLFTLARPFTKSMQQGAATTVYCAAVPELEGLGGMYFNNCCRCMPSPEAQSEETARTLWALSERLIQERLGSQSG
The test is described as follows: affinity purification with mass spectrometry; IP with a cocktail of mouse anti-WWOX monoclonal antibodies and protein A/G plus agarose from whole cell extracts of MDA-MB435S cells (EV, WWOX or WFPA overexpressing), overnight at 4 °C; lysis buffer with NaCl, Tris, glycerol, NP-40 1%, pH 7.4; on-bead trypsin elution, Q Exactive; three biological replicates.

Results are given in words; binding and its absence hold for the method and conditions named. In cells and extracts the contact can be indirect. Here binding means that the protein was enriched with, or labelled near, the bait; the list need not be complete. Sequences can lack the tags named with a protein.

“CDC5L, cell division cycle 5-like, endogenous in MDA-MB435S cells (from UniProt Q99459 1-802)”: the binding result is “binds”.

Regarding “DVL2 (Disheveled 2), endogenous in MDA-MB435S cells (from UniProt O14641 1-736)”, the binding result is listed as “binds”.

B1: SCAMP3 (secretory carrier membrane protein family), endogenous in MDA-MB435S cells (protein, UniProt O14828 1-347)
chain: MAQSRDGGNPFAEPSELDNPFQDPAVIQHRPSRQYATLDVYNPFETREPPPAYEPPAPAPLPPPSAPSLQPSRKLSPTEPKNYGSYSTQASAAAATAELLKKQEELNRKAEELDRRERELQHAALGGTATRQNNWPPLPSFCPVQPCFFQDISMEIPQEFQKTVSTMYYLWMCSTLALLLNFLACLASFCVETNNGAGFGLSILWVLLFTPCSFVCWYRPMYKAFRSDSSFNFFVFFFIFFVQDVLFVLQAIGIPGWGFSGWISALVVPKGNTAVSVLMLLVALLFTGIAVLGIVMLKRIHSLYRRTGASFQKAQQEFAAGVFSNPAVRTAAANAAAGAAENAFRAP
Consider B1, for which the binding entry is listed as “binds”.

B2: MYCBP, c-Myc binding protein, endogenous in MDA-MB435S cells (protein, UniProt Q99417 1-103)
chain: MAHYKAADSKREQFRRYLEKSGVLDTLTKVLVALYEEPEKPNSALDFLKHHLGAATPENPEIELLRLELAEMKEKYEAIVEENKKLKAKLAQYEPPQEEKRAE
For the molecule B2, the binding result is recorded as “binds”.
